## Primary screen of a compound library

Data taken from ChEMBL document CHEMBL3988442, “University of Dundee, Small-Polar-MMV Screening Library” (2021).

The filed quantity is “Percent Effect” (%).
The controls that fix the scale are not given in the record; negative values are as filed.
This is an unselected part of the compounds tested.

Mtb glucose medium: 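Phenotypic screen: M. tuberculosis growth, glucose 7H9 medium, 3 days; the read-out is not stated. Compounds at 500 µM. The record gives no direction; compounds that gave an IC50 in retests scored well above the rest, so higher reads as more growth inhibition. About 18,000 compounds were tested under these conditions; 7.9% (about 1,400) showed 50% or more at least once.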
Mtb cholesterol medium: 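Phenotypic screen: M. tuberculosis growth, cholesterol and DPPC medium, 4 days; the read-out is not stated. Compounds at 500 µM. The record gives no direction; compounds that gave an IC50 in retests scored well above the rest, so higher reads as more growth inhibition. Size under these conditions: about 18,000 compounds, about 900 of them at 50% or above in at least one test.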

{"structure": "Cc1cc(-c2noc(C(C)N)n2)ccc1F", "stereo": "centres undefined", "Mtb glucose medium": 57.82, "Mtb cholesterol medium": 57.79}
{"structure": "CCOc1ncnc2c1CN(Cc1cc(C)on1)CC2", "Mtb glucose medium": -4.046, "Mtb cholesterol medium": -15.41}
{"structure": "CC[C@H](C)[C@H](N)C(=O)N(C)CCc1scnc1C", "Mtb glucose medium": 2.237, "Mtb cholesterol medium": 2.31}
{"structure": "O=C(CNC(=O)c1cccnc1O)NC1CC1", "Mtb glucose medium": 27.46, "Mtb cholesterol medium": -2.771}
{"structure": "Cc1ccc(S(=O)(=O)NCC(C)N)cc1F", "stereo": "centres undefined", "Mtb glucose medium": 5.588, "Mtb cholesterol medium": 10.46}
{"structure": "Cc1ccc(CNC(C(N)=O)c2ccccc2)o1", "stereo": "centres undefined", "Mtb glucose medium": 4.94, "Mtb cholesterol medium": 2.555}
{"structure": "CN(C(=O)CN)C1CCCCC1", "Mtb glucose medium": 7.954, "Mtb cholesterol medium": -1.033}
{"structure": "c1coc(C2CCCN2)c1", "stereo": "centres undefined", "Mtb glucose medium": 44.62, "Mtb cholesterol medium": 18.31}
{"structure": "Cn1ccnc1CSCCO", "Mtb glucose medium": 4.236, "Mtb cholesterol medium": -5.015}
{"structure": "Cc1nn(C)c(C)c1CCC(=O)NCC1CCCO1", "stereo": "centres undefined", "Mtb glucose medium": 7.282, "Mtb cholesterol medium": -6.137}
{"structure": "CN(Cc1ccc(N)nc1)c1ncc(Cl)cn1", "Mtb glucose medium": 73.38, "Mtb cholesterol medium": 80.64}
{"structure": "N#Cc1ccccc1NCc1cccnc1", "Mtb glucose medium": 40.35, "Mtb cholesterol medium": 25.3}
{"structure": "CCC[C@H]1CN(S(=O)(=O)N2CCOCC2)C[C@@H]1N(C)C", "Mtb glucose medium": -6.649, "Mtb cholesterol medium": -1.931}
{"structure": "COc1ccc(NC(=O)N2CCN(C)CC2)cn1", "Mtb glucose medium": -2.539, "Mtb cholesterol medium": -11.6}
{"structure": "Cc1cc(NC(=O)CN(C)C)ccc1C(=O)NC(C)C", "Mtb glucose medium": 6.732, "Mtb cholesterol medium": -5.818}
{"structure": "COCC(C)(CCO)NCc1cc(C#N)ccc1F", "stereo": "centres undefined", "Mtb glucose medium": 3.103, "Mtb cholesterol medium": -7.791}
{"structure": "CCc1nccn1CCCNC(=O)Cc1ccncc1", "Mtb glucose medium": -2.385, "Mtb cholesterol medium": -11.79}
{"structure": "COC(C)C(=O)Nc1cccc2c(=O)n(C)ccc12", "stereo": "centres undefined", "Mtb glucose medium": 3.936, "Mtb cholesterol medium": -6.605}
{"structure": "COCCNC(=O)CCC1CCN(CCCSC)CC1", "Mtb glucose medium": 8.31, "Mtb cholesterol medium": 5.083}
{"structure": "O=c1[nH]ncc(NCc2cccc3c2OCO3)c1Cl", "Mtb glucose medium": 44.51, "Mtb cholesterol medium": 21.68}
{"structure": "Nc1nccnc1C(=O)NCc1ccccc1", "Mtb glucose medium": 55.97, "Mtb cholesterol medium": 22.46}
{"structure": "Cc1ccc(C)c(OC(C)C(=O)NCCS(C)(=O)=O)c1", "stereo": "centres undefined", "Mtb glucose medium": 30.13, "Mtb cholesterol medium": 8.321}
{"structure": "COc1ccc(S(=O)(=O)N2CCC(N)CC2)cc1OC", "Mtb glucose medium": 23.36, "Mtb cholesterol medium": 15.73}
{"structure": "CN1CCC(N(C)C(=O)Nc2ccc(C#N)cc2)CC1", "Mtb glucose medium": -9.928, "Mtb cholesterol medium": -13.19}
{"structure": "Cc1cc(NCc2cccnc2)n2ncnc2n1", "Mtb glucose medium": -17.57, "Mtb cholesterol medium": -18.4}
{"structure": "CCC1(O)CCCN(C(=O)Cc2cnccn2)C1", "stereo": "centres undefined", "Mtb glucose medium": -3.554, "Mtb cholesterol medium": -10.62}
{"structure": "Cc1cc(=O)n(C)cc1NC(=O)CCc1ccccn1", "Mtb glucose medium": -8.858, "Mtb cholesterol medium": -17.7}
{"structure": "CCOC(=O)c1c(N)c(C#N)n2c1CCCCC2", "Mtb glucose medium": 9.808, "Mtb cholesterol medium": 17.15}
{"structure": "CS(=O)(=O)CCN1CCCC(CO)(CC2CC2)C1", "stereo": "centres undefined", "Mtb glucose medium": 17.76, "Mtb cholesterol medium": 0.9565}
{"structure": "CNCC(=O)NC(Cc1cccc(OC)c1)C1CC1", "stereo": "centres undefined", "Mtb glucose medium": 32.82, "Mtb cholesterol medium": 8.083}
{"structure": "COc1cc(CN2CCNCC2)cc(OC)c1", "Mtb glucose medium": 32.94, "Mtb cholesterol medium": 15.12}
{"structure": "CN1CCC(=O)CC1c1ccccc1", "stereo": "centres undefined", "Mtb glucose medium": -76.49, "Mtb cholesterol medium": -33.59}
{"structure": "CSc1ccc(CNc2ccn(CCC(N)=O)n2)cc1", "Mtb glucose medium": 41.92, "Mtb cholesterol medium": 30.35}
{"structure": "CSCc1noc(CN2CCCC2c2nc(C)n[nH]2)n1", "stereo": "centres undefined", "Mtb glucose medium": 9.5, "Mtb cholesterol medium": 15.6}
{"structure": "CCC1CCC(NCCO)CC1", "stereo": "centres undefined", "Mtb glucose medium": 7.639, "Mtb cholesterol medium": 4.184}
{"structure": "CC(=O)N(Cc1nnc(C2CC2)n1C)C1CCNC1", "stereo": "centres undefined", "Mtb glucose medium": -8.306, "Mtb cholesterol medium": -15.34}
{"structure": "NCc1cccc(N2CCOCC2)c1", "Mtb glucose medium": 21.05, "Mtb cholesterol medium": 9.885}

For reference, 4 entries once more:

{"structure": "CCOC(=O)c1c(N)c(C#N)n2c1CCCCC2", "Mtb glucose medium": 9.808, "Mtb cholesterol medium": 17.15}
{"structure": "CCc1nccn1CCCNC(=O)Cc1ccncc1", "Mtb glucose medium": -2.385, "Mtb cholesterol medium": -11.79}
{"structure": "COC(C)C(=O)Nc1cccc2c(=O)n(C)ccc12", "stereo": "centres undefined", "Mtb glucose medium": 3.936, "Mtb cholesterol medium": -6.605}
{"structure": "Cn1ccnc1CSCCO", "Mtb glucose medium": 4.236, "Mtb cholesterol medium": -5.015}